Test results: US20240343717A1, “MICROBIOCIDAL PYRAZOLE DERIVATIVES” (SYNGENTA CROP PROTECTION AG, priority 2021, published 2024)
Some of these results come from one statement about several compounds together. For at least one compound, name, drawing or mass did not settle the structure.

Key:
Alternaria solani = Alternaria solani / tomato / leaf disc (early blight); format: in vivo; conditions: 200 ppm; tomato leaf disks, sprayed 2 days before inoculation; compared to untreated control
Protocol: Example B1: Alternaria solani/Tomato/Leaf Disc (Early Blight) Tomato leaf disks cv. Baby are placed on agar in multiwell plates (24-well format) and sprayed with the formulated test compound diluted in water. The leaf disks are inoculated with a spore suspension of the fungus 2 days after application. The inoculated leaf disks are incubated at 23° C./21° C.

[1] = system: Monographella nivalis (Microdochium nivale); test: Monographella nivalis (Microdochium nivale) / liquid culture (foot rot cereals); format: cell-based; conditions: 20 ppm, growth inhibition photometrically 4-5 days after application
Protocol: Example B9: Monographella nivalis (Microdochium nivale)/Liquid Culture (Foot Rot Cereals) Conidia of the fungus from cryogenic storage are directly mixed into nutrient broth (PDB potato dextrose broth). After placing a (DMSO) solution of test compound into a microtiter plate (96-well format), the nutrient broth containing the fungal spores is added. The test plates are incubated at 24° C. and the inhibition of growth is determined photometrically 4-5 days after application.

Pyrenophora teres = Pyrenophora teres / barley / leaf disc preventative (net blotch); format: in vivo; conditions: 200 ppm, barley leaf segments, inoculated 2 days after application
Protocol: Example B14: Pyrenophora teres/Barley/Leaf Disc Preventative (Net Blotch) Barley leaf segments cv. Hasso are placed on agar in a multiwell plate (24-well format) and sprayed with the formulated test compound diluted in water. The leaf segments are inoculated with a spore suspension of the fungus 2 days after application. The inoculated leaf segments are incubated at 20° C. and 65% rh under a light regime of 12 h light/12 h darkness in a climate cabinet and the activity of a compound is assessed as disease control compared to untreated when an appropriate level of disease damage appears in untreated check leaf segments (5-7 days after application).

Cn1cc(C(C)(CNC(=O)c2cc(-c3ccc(F)cc3F)on2)c2ccc(Cl)nn2)cn1 (stereo not drawn) [Compound P-22, N-[2-(6-chloropyridazin-3-yl)-2-(1-methylpyrazol-4-yl)propyl]-5-(2,4-difluorophenyl) isoxazole-3-carboxamide]
at least 80%: control of Alternaria solani (Alternaria solani) | control of Monographella nivalis [1] | control of Pyrenophora teres (Pyrenophora teres)
